PubChem BioAssay AID652243 – Drosophila RNAi Screening Center – 2013
The deposit covers about 24,000 reagents; below is a random part of those that have a named target and a result. Over the whole deposit, 246 (1%) are marked active. 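Plates not normalised; calls are printed but the firefly/Renilla ratio behind them is not deposited; fold cut for lowering reported inconsistently.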 The raw values are shown without normalisation. A plus sign joins genes that one reagent is predicted to hit. Not given: the amount of reagent.

Purpose: 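Knock-downs that decrease or increase androgen receptor reporter signal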 (primary screen)
Cell system: Drosophila S2R+ cells
Knock-down reagent: long dsRNA against Drosophila genes
Duration: 72 h (48 h, then 24 h hormone)
Conditions: synthetic androgen R1881 at 10 nM for 24 h
Detection: 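Per-well raw luminescence of the androgen-driven firefly reporter and of the Renilla control, two replicates each, without normalisation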
Scale: firefly reporter light: higher = more light from androgen-responsive reporter; Renilla control light: higher = more constitutive control signal (cell number, transfection)
Active means: 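Across duplicate plates, a knock-down whose log firefly/Renilla ratio shifted a set fold down or up from the GFP/LacZ control mean was a hit; the downward cut appears as both 1.5 and 3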
Calls: active = hit: reporter lowered or raised; inactive = no hit

| firefly reporter light, replicate 1 | firefly reporter light, replicate 2 | Renilla control light, replicate 1 | Renilla control light, replicate 2 | activity call | Gene | DRSC id |
| --- | --- | --- | --- | --- | --- | --- |
| 2.58e5 | 2.63e5 | 1.40e6 | 1.93e6 | inactive | CG9254 | DRSC01969 |
| 2.96e5 | 2.21e5 | 1.55e6 | 9.22e5 | inactive | trsn | DRSC06078 |
| 8.06e5 | 7.20e5 | 2.10e6 | 2.36e6 | inactive | l(2)k14505 | DRSC03106 |
| 7.36e5 | 2.51e5 | 1.52e6 | 9.47e5 | inactive | CG8042 | DRSC09676 |
| 8.75e5 | 7.12e5 | 1.03e6 | 1.13e6 | inactive | CG8042 | DRSC24712 |
| 1.07e5 | 81132 | 9.75e5 | 8.48e5 | inactive | NHP2 | DRSC11229 |
| 3.45e5 | 3.26e5 | 3.21e5 | 3.63e5 | inactive | NHP2 | DRSC24264 |
| 1.13e6 | 1.21e6 | 1.97e6 | 2.12e6 | inactive | ckn | DRSC06149 |
| 1.57e5 | 1.55e5 | 2.70e6 | 2.84e6 | inactive | CG43335 | DRSC15764 |
| 5.56e5 | 4.65e5 | 1.76e6 | 2.19e6 | inactive | CG43335 | DRSC22671 |
| 4.13e5 | 2.97e5 | 1.96e6 | 2.10e6 | inactive | CG43397 + CG12902 | DRSC06217 |
| 5.80e5 | 6.29e5 | 1.75e6 | 1.94e6 | inactive | CG31347 | DRSC21582 |
| 2.55e5 | 1.55e5 | 5.42e5 | 6.04e5 | inactive | ND-MLRQ | DRSC11913 |
| 1.20e5 | 1.29e5 | 1.80e6 | 2.10e6 | inactive | CG10063 | DRSC09688 |
| 4.40e5 | 5.27e5 | 1.14e6 | 9.92e5 | inactive | CG10063 | DRSC28872 |
| 50047 | 1.15e5 | 9.28e5 | 1.33e6 | inactive | CG11257 | DRSC06068 |
| 1.13e5 | 1.14e5 | 2.01e6 | 1.87e6 | inactive | boss | DRSC16916 |
| 4.48e5 | 5.85e5 | 8.15e5 | 7.69e5 | inactive | boss | DRSC25941 |
| 2.74e5 | 2.04e5 | 3.89e6 | 3.46e6 | inactive | CG9757 | DRSC16557 |
| 5.58e5 | 5.50e5 | 2.37e6 | 1.97e6 | inactive | CG9757 | DRSC21707 |
| 8.17e5 | 6.89e5 | 1.01e6 | 1.04e6 | inactive | CG9757 | DRSC25621 |
| 81402 | 92066 | 8.46e5 | 5.75e5 | inactive | dati | DRSC17128 |
| 1.34e5 | 2.08e5 | 4.30e6 | 2.90e6 | inactive | dati | DRSC17140 |
| 5.04e5 | 5.72e5 | 3.06e6 | 2.25e6 | inactive | dati | DRSC17153 |
| 9.60e5 | 1.08e6 | 5.41e5 | 6.05e5 | inactive | dati | DRSC25407 |
| 1.23e6 | 8.00e5 | 1.40e6 | 1.34e6 | inactive | CG8501 | DRSC07198 |
| 8.08e5 | 9.27e5 | 1.68e6 | 1.63e6 | inactive | Usp14 | DRSC02853 |
| 3.30e5 | 3.90e5 | 6.02e5 | 7.52e5 | inactive | Usp14 | DRSC26748 |
| 8.14e5 | 6.18e5 | 1.29e6 | 1.51e6 | inactive | CG43339 | DRSC02466 |
| 1.05e5 | 90545 | 7.03e5 | 8.17e5 | inactive | RpS5a | DRSC20282 |
| 3.49e5 | 2.49e5 | 2.17e6 | 1.67e6 | inactive | Rpp25 | DRSC05002 |
| 2.35e5 | 2.04e5 | 1.80e6 | 1.84e6 | inactive | zetaCOP | DRSC11412 |
| 7.30e5 | 7.47e5 | 1.85e6 | 2.04e6 | inactive | CG8490 | DRSC07194 |
| 5.10e5 | 2.71e5 | 9.39e5 | 8.44e5 | inactive | CG8490 | DRSC27075 |
| 1.27e5 | 81521 | 1.57e5 | 1.68e5 | inactive | dsx | DRSC12649 |
| 1.50e5 | 1.37e5 | 1.56e6 | 1.57e6 | inactive | dsx | DRSC16934 |
| 7.10e5 | 5.71e5 | 3.22e6 | 2.26e6 | inactive | dsx | DRSC21495 |
| 4.16e5 | 3.76e5 | 6.66e5 | 6.29e5 | inactive | dsx | DRSC26707 |
| 1.22e5 | 1.65e5 | 1.70e6 | 2.00e6 | inactive | CG8620 | DRSC11020 |
| 7.08e5 | 5.94e5 | 7.78e5 | 1.27e6 | inactive | CG8620 | DRSC25632 |
| 3.77e5 | 3.97e5 | 4.46e6 | 4.84e6 | inactive | Gs2 | DRSC20250 |
| 3.17e5 | 3.06e5 | 5.06e5 | 3.88e5 | inactive | Gs2 | DRSC26818 |
| 1.05e6 | 1.41e6 | 2.09e6 | 2.37e6 | inactive | CG31908 | DRSC23243 |
| 6.90e5 | 6.70e5 | 1.62e6 | 1.62e6 | inactive | CG34443 | DRSC29357 |
| 1.29e5 | 1.26e5 | 1.74e6 | 1.45e6 | inactive | Syx13 | DRSC09836 |
| 6.09e5 | 5.63e5 | 2.68e6 | 1.97e6 | inactive | CG43066 | DRSC06927 |
| 6.72e5 | 6.77e5 | 7.99e5 | 8.04e5 | inactive | CG43066 | DRSC26570 |
| 3.54e5 | 1.66e5 | 3.80e6 | 1.54e6 | inactive | mus301 | DRSC10939 |
| 2.02e5 | 1.46e5 | 2.32e6 | 1.95e6 | inactive | CG5861 | DRSC02907 |
| 88703 | 1.26e5 | 1.75e6 | 2.14e6 | inactive | SPARC | DRSC14123 |
| 3.63e5 | 3.19e5 | 1.04e6 | 9.71e5 | inactive | SPARC | DRSC26381 |
| 4.55e5 | 4.67e5 | 1.77e6 | 1.89e6 | active | SPARC | DRSC38983 |
| 5.82e5 | 5.15e5 | 1.68e5 | 1.21e5 | inactive | CG32814 | DRSC17670 |
| 3.67e5 | 2.98e5 | 7.04e5 | 6.07e5 | inactive | CG32814 | DRSC26042 |
| 2.24e5 | 2.35e5 | 3.05e6 | 2.63e6 | inactive | Gug | DRSC11179 |
| 23231 | 82619 | 1.96e5 | 4.01e5 | inactive | Grip84 | DRSC20248 |
| 4.03e5 | 3.67e5 | 5.03e5 | 4.58e5 | inactive | Grip84 | DRSC26202 |
| 90609 | 94775 | 7.53e5 | 7.46e5 | inactive | CG5877 | DRSC19963 |
| 3.20e5 | 5.07e5 | 6.80e5 | 1.07e6 | inactive | CG5877 | DRSC28413 |
| 4.11e5 | 3.25e5 | 2.92e6 | 2.57e6 | inactive | mRpL19 | DRSC16367 |
| 8.01e5 | 6.33e5 | 3.45e6 | 2.18e6 | inactive | mRpL19 | DRSC21618 |
| 3.23e5 | 2.85e5 | 9.09e5 | 7.51e5 | inactive | mRpL19 | DRSC26104 |
| 1.92e5 | 2.30e5 | 2.87e6 | 3.23e6 | inactive | Jhbp5 | DRSC14240 |
| 63353 | 76781 | 4.19e5 | 3.78e5 | inactive | Atg4b | DRSC15988 |
| 7.92e5 | 6.23e5 | 7.84e5 | 9.84e5 | inactive | Atg4b | DRSC25480 |
| 6.90e5 | 6.52e5 | 1.13e6 | 1.39e6 | inactive | CG4594 | DRSC02762 |
| 3.02e5 | 2.93e5 | 2.66e6 | 2.92e6 | inactive | Rab9D + Rab9Fa + Rab9E | DRSC19853 |
| 1.17e6 | 1.02e6 | 2.19e6 | 1.75e6 | inactive | inaC | DRSC07632 |
| – | – | – | – | inactive | inaC | DRSC36645 |
| – | – | – | – | inactive | inaC | DRSC36646 |
| 9.65e5 | 8.76e5 | 2.54e6 | 2.66e6 | inactive | Gdi | DRSC03330 |
| 5.49e5 | 3.67e5 | 1.04e6 | 9.18e5 | inactive | Gdi | DRSC28978 |
| 2.92e5 | 1.94e5 | 2.47e6 | 1.85e6 | inactive | SCAP | DRSC04869 |
| 3.57e5 | 2.42e5 | 1.78e6 | 1.10e6 | inactive | SCAP | DRSC04907 |

Entries listed so far whose gene name begins with A or a (2):
| firefly reporter light, replicate 1 | firefly reporter light, replicate 2 | Renilla control light, replicate 1 | Renilla control light, replicate 2 | activity call | Gene | DRSC id |
| --- | --- | --- | --- | --- | --- | --- |
| 63353 | 76781 | 4.19e5 | 3.78e5 | inactive | Atg4b | DRSC15988 |
| 7.92e5 | 6.23e5 | 7.84e5 | 9.84e5 | inactive | Atg4b | DRSC25480 |
